Part of at least one peptide drawing is inferred or uncertain, most often the ends. Some compounds share one wording; it may come from a single statement. Square brackets hold non-standard residues; d marks the D form. Peptide text beside a SMILES is read from it. * marks the point of attachment. dPhe(4-Cl) = N[C@H](Cc1ccc(Cl)cc1)C(=O)O; d3Pal = N[C@H](Cc1cccnc1)C(=O)O; αMeL = CC(C)C[C@](C)(N)C(=O)O; Nle = CCCC[C@H](N)C(=O)O; Orn = NCCC[C@H](N)C(=O)O; Nva = CCC[C@H](N)C(=O)O; Acryloyl = C=CC(=O)*; Aib = CC(C)(N)C(=O)O; For = O=C*
System: secretion of ACTH stimulated by oCRF in cultured rat pituitary cells
Assay: Blocking of oCRF-stimulated ACTH and β-endorphin secretion by cultured rat pituitary cells
Assay type: cell-based
Conditions: result in words
Description: The effectiveness of synthetic CRF antagonists to block the secretion of ACTH and β-endorphin by cultured rat pituitary cells is measured using the procedure as generally set forth in Vale et al., Endocrinology, 91, 562 (1972).

`CCCC[C@H](NC(=O)[C@H](CC(C)C)NC(=O)[C@H](CC(C)C)NC(=O)[C@H](CCCNC(=N)N)NC(=O)[C@H](CC(N)=O)NC(=O)[C@H](CC(C)C)NC(=O)[C@H](C)NC(=O)[C@H](C)NC(=O)[C@H](CCC(N)=O)NC(=O)[C@H](CCC(=O)O)NC(=O)C(C)(C)NC(=O)[C@H](CCC(=O)O)NC(=O)[C@H](CCC(N)=O)NC(=O)[C@H](CCC(=O)O)NC(=O)[C@H](C)NC(=O)[C@H](CCCCN)NC(=O)[C@H](C)NC(=O)[C@H](CCSC)NC(=O)[C@H](CCC(=O)O)NC(=O)[C@H](CC(C)C)NC(=O)[C@H](CCSC)NC(=O)[C@H](CCC(=O)O)NC(=O)[C@H](CCCNC(=N)N)NC(=O)[C@H](CC(C)C)NC(=O)[C@H](CC(C)C)NC(=O)[C@H](Cc1ccc(O)cc1)NC(=O)[C@H](N)[C@H](C)CC)C(=O)N[C@@H](CCC(=O)O)C(=O)N[C@@H](CCC(=O)O)C(=O)N[C@@H](C)C(N)=O` [XXIV, [D-Ile^12, Tyr^13, CMA^28, Nle^38]-AHC(12-41)] (H-[dI]YLLREMLEMAKAEQE[Aib]EQAALNRLL[Nle]EEA-NH2) was tested, and the “inhibition of the secretion of ACTH and β-END-LI” value (from here on “inhibition”) was “inhibits the secretion of ACTH and β-END-LI”.

With `C=CC(=O)N[C@@H](CC(C)C)C(=O)N[C@H](C(=O)N[C@@H](Cc1ccccc1)C(=O)N[C@@H](Cc1c[nH]cn1)C(=O)N[C@@H](CC(C)C)C(=O)N[C@@H](CC(C)C)C(=O)N[C@@H](CCCNC(=N)N)C(=O)N[C@@H](CCC(=O)O)C(=O)N[C@H](C(=O)N[C@@H](CC(C)C)C(=O)N[C@@H](CCC(=O)O)C(=O)N[C@@H](CCSC)C(=O)N[C@@H](C)C(=O)N[C@@H](CCCNC(=N)N)C(=O)N[C@@H](C)C(=O)N[C@@H](CCC(=O)O)C(=O)N[C@@H](CCC(N)=O)C(=O)N[C@H](C(=O)N[C@@H](C)C(=O)N[C@@H](CCC(N)=O)C(=O)N[C@@H](CCC(N)=O)C(=O)N[C@@H](C)C(=O)N[C@@H](Cc1c[nH]cn1)C(=O)N[C@@H](CO)C(=O)N[C@@H](CC(N)=O)C(=O)N[C@@H](CCCNC(=N)N)C(=O)N[C@@H](CCCCN)C(=O)N[C@@H](CC(C)C)C(=O)N[C@@H](CCCC)C(=O)N[C@@H](CCC(=O)O)C(=O)N[C@@H](C)C(=O)N[C@@H](CC(C)C)C(N)=O)C(C)C)C(C)C)[C@@H](C)O` [XXIX, [Acrylyl-Leu^10, Val^27, Nle^38, Ala^40, Leu^41]-hCRF(10-41)] (Acryloyl-LTFHLLREVLEMARAEQVAQQAHSNRKL[Nle]EAL-NH2) the “inhibition” value was “inhibits the secretion of ACTH and β-END-LI”.

With `CCCC[C@H](NC(=O)[C@H](CC(C)C)NC(=O)[C@H](CCCCN)NC(=O)[C@H](CCCNC(=N)N)NC(=O)[C@H](CC(N)=O)NC(=O)C(C)(C)NC(=O)[C@H](Cc1c[nH]cn1)NC(=O)[C@H](C)NC(=O)[C@H](CCC(N)=O)NC(=O)[C@H](CCC(N)=O)NC(=O)[C@H](C)NC(=O)[C@H](CC(C)C)NC(=O)[C@H](CCC(N)=O)NC(=O)[C@H](CCC(=O)O)NC(=O)[C@@H](NC(=O)[C@H](CCCCN)NC(=O)[C@H](C)NC(=O)[C@H](CCSC)NC(=O)[C@H](CCC(=O)O)NC(=O)[C@H](CCC(N)=O)NC(=O)[C@@H](NC(=O)[C@H](CCC(=O)O)NC(=O)[C@H](CCCNC(=N)N)NC(=O)[C@H](CC(C)C)NC(=O)[C@H](CC(C)C)NC(=O)[C@H](Cc1c[nH]cn1)NC(=O)[C@@H](N)Cc1ccccc1)C(C)C)C(C)C)C(=O)N[C@@H](CCC(=O)O)C(=O)N[C@H](C(=O)N[C@H](C(N)=O)[C@@H](C)CC)[C@@H](C)CC` [XIV, [Gln^19, Lys^23, Val^24, CMA^33, Nle^38]-hCRF(12-41)] (H-FHLLREVQEMAKVEQLAQQAH[Aib]NRKL[Nle]EII-NH2) the “inhibition” value was “inhibits the secretion of ACTH and β-END-LI”.

In the case of `CCCC[C@H](NC(=O)[C@H](CC(C)C)NC(=O)[C@H](CCCCN)NC(=O)[C@H](CCCNC(=N)N)NC(=O)[C@H](CC(N)=O)NC(=O)[C@H](CO)NC(=O)[C@H](Cc1c[nH]cn1)NC(=O)[C@H](C)NC(=O)[C@H](CCC(N)=O)NC(=O)[C@H](CCC(N)=O)NC(=O)[C@H](C)NC(=O)[C@H](CC(=O)O)NC(=O)[C@H](CCC(N)=O)NC(=O)[C@H](CCC(=O)O)NC(=O)[C@H](Cc1ccccc1)NC(=O)[C@H](CCCN)NC(=O)[C@H](C)NC(=O)[C@H](Cc1ccccc1)NC(=O)[C@H](CCC(=O)O)NC(=O)[C@H](CC(C)C)NC(=O)[C@@H](NC(=O)[C@H](CCC(=O)O)NC(=O)[C@H](CCCNC(=N)N)NC(=O)[C@H](CC(C)C)NC(=O)[C@H](CC(C)C)NC(=O)[C@H](Cc1c[nH]cn1)NC(=O)[C@H](N)Cc1c[nH]cn1)C(C)C)C(=O)N[C@@H](CCC(=O)O)C(=O)NC(C)(C)C(=O)N[C@H](C(N)=O)C(C)C` [XXXIV, [D-His^12, Phe^21,24, Orn^23, Asp^27, Nle^38, CMA^40, Val^41]-hCRF(12-41)] (H-[dH]HLLREVLEFA[Orn]FEQDAQQAHSNRKL[Nle]E[Aib]V-NH2), the “inhibition” value is reported as “inhibits the secretion of ACTH and β-END-LI”.

For `CCCC[C@H](NC(=O)[C@H](CC(C)C)NC(=O)[C@H](CCCCN)NC(=O)[C@H](CCCNC(=N)N)NC(=O)[C@H](CC(N)=O)NC(=O)[C@H](CO)NC(=O)[C@H](Cc1ccc(O)cc1)NC(=O)[C@H](C)NC(=O)[C@H](CCC(N)=O)NC(=O)[C@H](CCC(N)=O)NC(=O)[C@H](C)NC(=O)[C@H](CC(C)C)NC(=O)[C@H](CCC(N)=O)NC(=O)[C@H](CCC(=O)O)NC(=O)[C@H](C)NC(=O)[C@H](CCCNC(=N)N)NC(=O)[C@@H](NC(=O)[C@H](CCC(N)=O)NC(=O)[C@H](CCC(=O)O)NC(=O)[C@H](Cc1ccccc1)NC(=O)[C@@H](NC(=O)[C@H](CCC(=O)O)NC(=O)[C@H](CCCNC(=N)N)NC(=O)[C@H](CC(C)C)NC(=O)[C@H](CC(C)C)NC(=O)[C@H](Cc1c[nH]cn1)NC(=O)[C@@H](Cc1cccnc1)NC=O)C(C)C)[C@@H](C)O)C(=O)N[C@@H](CCC(=O)O)C(=O)N[C@@](C)(CC(C)C)C(=O)N[C@@](C)(CC(C)C)C(N)=O` [XXXV, [formyl-D-Pal^12, Phe^19, Gln^21, Thr^22, Tyr^32, Nle^38, CML^40,41]-hCRF(12-41)] (For-[d3Pal]HLLREVFEQTRAEQLAQQAYSNRKL[Nle]E[αMeL][αMeL]-NH2), the “inhibition” value was “inhibits the secretion of ACTH and β-END-LI”.

With `CCCC[C@H](NC(=O)[C@H](CC(C)C)NC(=O)[C@H](CCCCN)NC(=O)[C@H](CCCNC(=N)N)NC(=O)[C@H](CC(N)=O)NC(=O)[C@@H](NC(=O)[C@H](Cc1ccc(O)cc1)NC(=O)[C@H](C)NC(=O)[C@H](CCC(N)=O)NC(=O)[C@H](CCC(N)=O)NC(=O)[C@H](C)NC(=O)C(C)(C)NC(=O)[C@H](CCC(N)=O)NC(=O)[C@H](CCC(=O)O)NC(=O)C(C)(C)NC(=O)[C@H](CCCNC(=N)N)NC(=O)[C@H](C)NC(=O)C(C)(C)NC(=O)[C@H](CCC(=O)O)NC(=O)C(C)(C)NC(=O)[C@@H](NC(=O)[C@H](CCC(=O)O)NC(=O)[C@H](CCCNC(=N)N)NC(=O)[C@H](CC(C)C)NC(=O)[C@H](CC(C)C)NC(=O)[C@H](Cc1c[nH]cn1)NC(=O)[C@@H](Cc1c[nH]cn1)NC(=O)[C@@H](N)[C@@H](C)O)C(C)C)[C@@H](C)O)C(=O)N[C@@H](CCC(=O)O)C(=O)N[C@@H](CCC(N)=O)C(=O)N[C@H](C(N)=O)[C@@H](C)CC` [XXXI, [D-His^12, CMA^19,21,24,27, Tyr^32, Thr^33, Nle^38, Gln^40]-hCRF(11-41)] (H-T[dH]HLLREV[Aib]E[Aib]AR[Aib]EQ[Aib]AQQAYTNRKL[Nle]EQI-NH2) the “inhibition” value was “inhibits the secretion of ACTH and β-END-LI”.

With `CCCC[C@H](NC(=O)[C@H](CCC(N)=O)NC(=O)[C@H](CCC(=O)O)NC(=O)[C@H](CC(C)C)NC(=O)[C@H](CCCNC(=N)N)NC(=O)[C@H](C)NC(=O)[C@H](CCC)NC(=O)[C@@H](CCC(=O)O)NC(=O)[C@H](CCCC)NC(=O)[C@@H](NC(=O)[C@H](CCC(=O)O)NC(=O)[C@H](CCCNC(=N)N)NC(=O)[C@H](CC(C)C)NC(=O)[C@H](CC(C)C)NC(=O)[C@H](Cc1c[nH]cn1)NC(=O)[C@H](N)Cc1ccc(Cl)cc1)C(C)C)C(=O)N[C@@H](C)C(=O)N[C@@H](CCC(N)=O)C(=O)N[C@@H](CCC(N)=O)C(=O)N[C@@H](C)C(=O)N[C@@H](Cc1c[nH]cn1)C(=O)N[C@@H](CO)C(=O)N[C@@H](CC(N)=O)C(=O)N[C@@H](CCCNC(=N)N)C(=O)N[C@@H](CCCCN)C(=O)N[C@@H](CC(C)C)C(=O)N[C@@H](CCCC)C(=O)N[C@@H](CCC(=O)O)C(=O)NCC(=O)NC(C)(C)C(N)=O` [XXXII, [4Cl-D-Phe^12, Nle^19,27,38, D-Glu^20, Nva^21, Leu^24, Gly^40, CMA^41]-hCRF(12-41)] (H-[dPhe(4-Cl)]HLLREV[Nle][dE][Nva]ARLEQ[Nle]AQQAHSNRKL[Nle]EG[Aib]-NH2) the “inhibition” value was “inhibits the secretion of ACTH and β-END-LI”.

Reference: patent US5109111A, “CRF antagonists” (The Salk Institute for Biological Studies, priority 1990, dated 1992)
